Measurements reported in US5612378A, “Bis-arylsulfonylaminobenzamide derivatives and the use thereof as factor Xa inhibitors” (priority 1995, dated 1997).
Some results were stated once for a whole list of compounds, not compound by compound.

The chains behind the UniProt entries cited, without tags or fusion partners. Residues count along the entry.
UniProt P00742, 41-179 partner limits assumed: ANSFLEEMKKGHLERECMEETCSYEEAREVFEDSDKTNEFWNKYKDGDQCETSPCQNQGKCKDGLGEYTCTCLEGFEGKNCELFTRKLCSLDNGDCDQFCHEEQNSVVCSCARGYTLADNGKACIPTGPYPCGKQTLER
UniProt P00742, 235-488 limits assumed: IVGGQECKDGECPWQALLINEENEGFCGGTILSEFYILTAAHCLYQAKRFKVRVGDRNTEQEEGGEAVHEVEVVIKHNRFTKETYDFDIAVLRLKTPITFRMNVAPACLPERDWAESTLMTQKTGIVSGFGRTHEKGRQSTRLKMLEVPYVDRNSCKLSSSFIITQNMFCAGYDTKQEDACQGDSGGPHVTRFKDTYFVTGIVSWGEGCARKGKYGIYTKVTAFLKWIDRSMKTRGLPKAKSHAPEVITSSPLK

Molecular target: T1, Factor Xa (Homo sapiens, UniProt P00742)
T1 construct: purchased Enzyme Research Laboratories, Inc
Assay: In vitro inhibition of purified human factor Xa (hydrolysis of Bz-Ile-Glu-Gly-Arg-pNa)
Format: biochemical
Details: conclusion from Table 1, versus thrombin and plasmin
Protocol: The ability of the compounds of the present invention to act as inhibitors of thrombin, factor Xa and plasmin catalytic activity was assessed by determining the concentration which inhibited enzyme activity by 50% using purified human enzymes.
All assays are based on the ability of the test compound to inhibit the hydrolysis of a peptide p-nitroanilide substrate. In a typical experiment, appropriate substrate is prepared in DMSO, and diluted into an assay buffer consisting of 50mM HEPES and 130 mM NaCl at a pH of 7.5. The final concentration for each of the substrates is listed below. […] Test compounds are prepared as 1 mg/ml solutions in DMSO, and three additional 10-fold dilutions in DMSO are prepared. Enzyme solutions are prepared at the concentrations listed below in assay buffer.
Reactions are initiated by the addition of a 20 μL aliquot of enzyme, and the absorbance increase at 405 nm is recorded for 15 minutes. Data corresponding to less than 10% of the total substrate hydrolysis is used in the calculations. The ratio of the velocity (rate of the change in absorbance as a function of time) for a sample containing no inhibitor is divided by the velocity of a sample containing inhibitor, and is plotted as a function of inhibitor concentration. The inverse of the slope is the concentration of inhibitor which produces a 50% decrease in activity of the enzyme. This concentration is referred to as the IC50.
Factor Xa activity was assessed as the ability to hydrolyse the substrate Bz-Ile-Glu-Gly-Arg-pNa, and was obtained from Sigma. […] Final DMSO concentration was 0.3%.

SMILES	selectivity and potency of factor Xa inhibition
O=C(NCCCCCNC(=O)c1cccc(NS(=O)(=O)c2ccc3ccccc3c2)c1)c1cccc(NS(=O)(=O)c2ccc3ccccc3c2)c1 [Example 4, 1,5-di[3-(2-naphthalenylsulfonylamino)benzamido]pentane]	highly selective and potent inhibitors of factor Xa
O=C(NCCCCCCCCNC(=O)c1cccc(NS(=O)(=O)c2ccc3ccccc3c2)c1)c1cccc(NS(=O)(=O)c2ccc3ccccc3c2)c1 [Example 5, 1,8-di[3-(2-naphthalenylsulfonylamino)benzamido]octane]	highly selective and potent inhibitors of factor Xa
O=C(NCCCN1CCN(CCCNC(=O)c2cccc(NS(=O)(=O)c3ccc4ccccc4c3)c2)CC1)c1cccc(NS(=O)(=O)c2ccc3ccccc3c2)c1 [Example 6, 1,4-di-[3-(2-naphthalenylsulfonylamino)benzamidopropyl]piperazine]	highly selective and potent inhibitors of factor Xa
O=C(NCc1cccc(CNC(=O)c2cccc(NS(=O)(=O)c3ccc4ccccc4c3)c2)c1)c1cccc(NS(=O)(=O)c2ccc3ccccc3c2)c1 [Example 7, 1,3-di-[3-(2-naphthalenylsulfonylamino)benzamidomethyl]benzene]	highly selective and potent inhibitors of factor Xa
